Structures can show the parent of a compound that is named as a salt. Some of the results follow. Most values lie within the scatter of the assay; repeated measurements hardly agree.
System: Brugia pahangi adult female
Assay: motility inhibition on day 3 relative to DMSO vehicle; higher = more active
Settings: 10 µM; 3 days

Row | SMILES | motility inhibition on day 3 [%]
1 | CCCCCCCCCC(=O)N[C@@H](Cc1c[nH]c2ccccc12)C(=O)N[C@@H](CC(N)=O)C(=O)N[C@@H](CC(=O)O)C(=O)N[C@@H]1C(=O)NCC(=O)N[C@@H](CCCN)C(=O)N[C@@H](CC(=O)O)C(=O)N[C@H](C)C(=O)N[C@@H](CC(=O)O)C(=O)NCC(=O)N[C@H](CO)C(=O)N[C@@H]([C@H](C)CC(=O)O)C(=O)N[C@@H](CC(=O)c2ccccc2N)C(=O)O[C@@H]1C [daptomycin (5 millimolar/dmso)] | 8.94
2 | C[n+]1cc2c3c(ccc2c2ccc4cc5c(cc4c21)OCO5)OCO3 [Sanguinarine chloride] | 95.2
3 | Clc1ccc(CSC(Cn2ccnc2)c2ccc(Cl)cc2Cl)cc1 (stereo not drawn) [sulconazole nitrate] | 98.3
4 | Nc1ncnc2c1ncn2[C@@H]1O[C@H](CO)[C@@H](O)[C@H]1O [adenosine] | < 0
5 | CC(=O)O[C@@]12CO[C@@H]1C[C@H](O)[C@@]1(C)C(=O)[C@H](O)C3=C(C)[C@@H](OC(=O)[C@H](O)[C@@H](NC(=O)OC(C)(C)C)c4ccccc4)C[C@@](O)([C@@H](OC(=O)c4ccccc4)[C@H]21)C3(C)C [docetaxel] | 3.86
6 | CC(O)C(=O)O.N (stereo not drawn) [ammonium lactate] | 27.3
7 | CN1C(=O)CC(c2ccccc2)C1=O (stereo not drawn) [phensuccimide] | 57.7
8 | CC1CNc2c(cccc2S(=O)(=O)N[C@@H](CCCNC(=N)N)C(=O)N2CC[C@@H](C)C[C@@H]2C(=O)O)C1 (stereo partly drawn) | 23.9
9 | CN(C)CCN(Cc1ccccc1)c1ccccn1 [Tripelennamine hydrochloride] | 39.3
10 | C=CC1=C(C)c2cc3[nH]c(cc4nc(cc5[nH]c(cc1n2)c(C)c5CCC(=O)O)C(CCC(=O)O)=C4C)c(C)c3C=C [protoporphyrin ix] | < 0
11 | CO[C@H]1C[C@@H]2CC[C@@H](C)[C@@](O)(O2)C(=O)C(=O)N2CCCC[C@H]2C(=O)O[C@H]([C@H](C)C[C@@H]2CC[C@@H](OCCO)[C@H](OC)C2)CC(=O)[C@H](C)/C=C(\C)[C@@H](O)[C@@H](OC)C(=O)[C@H](C)C[C@H](C)/C=C/C=C/C=C/1C [Everolimus] | 14.6
12 | N=C(N)c1ccc(OCCCCCOc2ccc(C(=N)N)cc2)cc1 [Pentamidine isethionate] | 49.6
13 | O=C(OC[C@H]1O[C@@H](OC(=O)c2cc(O)c(O)c(OC(=O)c3cc(O)c(O)c(O)c3)c2)[C@H](OC(=O)c2cc(O)c(O)c(OC(=O)c3cc(O)c(O)c(O)c3)c2)[C@@H](OC(=O)c2cc(O)c(O)c(OC(=O)c3cc(O)c(O)c(O)c3)c2)[C@@H]1OC(=O)c1cc(O)c(O)c(OC(=O)c2cc(O)c(O)c(O)c2)c1)c1cc(O)c(O)c(OC(=O)c2cc(O)c(O)c(O)c2)c1 [tannic acid] | 29.6
14 | CCCCC(=O)O[C@H]1CC[C@H]2[C@@H]3CCc4cc(O)ccc4[C@H]3CC[C@]12C [estradiol valerate] | 5.13
15 | Cc1ccc(Nc2c(F)cccc2Cl)c(CC(=O)O)c1 [lumiracoxib] | 22
16 | Fc1ccc(C(c2ccc(F)cc2)N2CCN(C/C=C/c3ccccc3)CC2)cc1 [Flunarizine dihydrochloride] | 11.5
17 | CN1CCc2c(c3ccccc3n2Cc2ccccc2)C1 [mebhydrolin naphthalenesulfonate] | < 0
18 | Cc1ccc2c(Br)cc(Br)c(OC(=O)c3ccccc3)c2n1 [broxaldine] | 78.7
19 | CN[C@@H]1[C@H](O[C@H]2[C@H](O[C@H]3[C@H](O)[C@@H](O)[C@H](N=C(N)N)[C@@H](O)[C@@H]3N=C(N)N)O[C@@H](C)[C@]2(O)C=O)O[C@@H](CO)[C@H](O)[C@H]1O [streptomycin sulfate] | < 0
20 | Cc1cccc(C(=O)O)c1O [hydroxytoluic acid] | < 0
21 | COc1cccc2c1C(=O)c1c(O)c3c(c(O)c1C2=O)C[C@@](O)(C(=O)CO)C[C@@H]3O[C@H]1C[C@H](N)[C@H](O)[C@H](C)O1 [doxorubicin] | 24.6

Row | SMILES | motility inhibition on day 3 [%]
22 | CCC(=O)O[C@@H](O[P@](=O)(CCCCc1ccccc1)CC(=O)N1C[C@H](C2CCCCC2)C[C@H]1C(=O)O)C(C)C [Fosinopril] | 7.77
23 | CC1(C)S[C@@H]2[C@H](NC(=O)[C@H](N)c3ccc(O)cc3)C(=O)N2[C@H]1C(=O)O [amoxicillin] | 6.71
24 | OCCOCCN1CCN(C2=Nc3ccccc3Sc3ccccc32)CC1 [quetiapine] | < 0
25 | Oc1ncnc2[nH]ncc12 [Allopurinol] | < 0
26 | C[C@]12CCC(=O)C=C1CC[C@@H]1[C@@H]2[C@@H](O)C[C@@]2(C)[C@H]1CC[C@]2(O)C(=O)CO [hydrocortisone] | 29.6
27 | CCOC(=O)C1=C[C@@H](OC(CC)CC)[C@H](NC(C)=O)[C@@H](N)C1 [Oseltamivir] | 3.43
28 | CCOC(=O)C1=C[C@@H](OC(CC)CC)[C@H](NC(C)=O)[C@@H](N)C1 [oseltamivir phosphate] | 33.3
29 | CNCCCC1c2ccccc2C=Cc2ccccc21 [Protriptyline hydrochloride] | 20.6
30 | Cc1onc(-c2ccccc2)c1-c1ccc(S(N)(=O)=O)cc1 [valdecoxib] | < 0
31 | CCCc1cc(=O)[nH]c(=S)[nH]1 [propylthiouracil] | < 0
32 | CN(N=O)C(=O)N[C@H]1C(O)O[C@H](CO)[C@@H](O)[C@@H]1O (mixture of isomers) [streptozosin] | < 0
33 | CO/N=C(\C(=O)N[C@@H]1C(=O)N2C(C(=O)OCOC(=O)C(C)(C)C)=C(/C=C\c3scnc3C)CS[C@H]12)c1csc(N)n1 [cefditorin pivoxil] | < 0
34 | CO/N=C(\C(=O)N[C@@H]1C(=O)N2C(C(=O)OCOC(=O)C(C)(C)C)=C(/C=C\c3scnc3C)CS[C@H]12)c1csc(N)n1 [Cefditoren Pivoxil] | < 0
35 | CC(C)(C(=O)O)c1ccc(C(O)CCCN2CCC(C(O)(c3ccccc3)c3ccccc3)CC2)cc1 (stereo not drawn) [fexofenadine hydrochloride] | 4.7
36 | Cc1cc(C(C)(C)C)c(O)c(C)c1CC1=NCCN1 [Oxymetazoline hydrochloride] | 18.7
37 | CN(C)CCCN1c2ccccc2Sc2ccccc21 [promazine hydrochloride] | 37.1
38 | C[N+]1(C)[C@@H]2C[C@@H](OC(=O)C(O)(c3cccs3)c3cccs3)C[C@H]1[C@@H]1O[C@@H]12 [Tiotropium Bromide] | < 0
39 | C[C@H]1COc2c(C3(N)CC3)c(F)cc3c(=O)c(C(=O)O)cn1c23 [pazufloxacin mesylate] | 20.6
40 | CC(C(=O)O)c1ccc2c(c1)Cc1cccnc1O2 (stereo not drawn) [pranoprofen] | 2.29
41 | CSc1ccc2c(c1)C(N1CCN(C)CC1)Cc1ccccc1S2 (stereo not drawn) [Methiothepin mesylate] | 23
42 | CC(=O)Nc1ccccc1 [acetanilide] | 2.6

Part of the list above, as a markdown table:

| Row | SMILES | motility inhibition on day 3 [%] |
| --- | --- | --- |
| 36 | Cc1cc(C(C)(C)C)c(O)c(C)c1CC1=NCCN1 [Oxymetazoline hydrochloride] | 18.7 |
| 37 | CN(C)CCCN1c2ccccc2Sc2ccccc21 [promazine hydrochloride] | 37.1 |

Two entries drawn at random from those above:
Row | SMILES | motility inhibition on day 3 [%]
2 | C[n+]1cc2c3c(ccc2c2ccc4cc5c(cc4c21)OCO5)OCO3 [Sanguinarine chloride] | 95.2
28 | CCOC(=O)C1=C[C@@H](OC(CC)CC)[C@H](NC(C)=O)[C@@H](N)C1 [oseltamivir phosphate] | 33.3

The listing continues.

Row | SMILES | motility inhibition on day 3 [%]
43 | COC(=O)C1=C(C)NC(C)=C(C(=O)OCCN2CCN(C(c3ccccc3)c3ccccc3)CC2)C1c1cccc([N+](=O)[O-])c1 (stereo not drawn) [manidipine hydrochloride] | 14.7
44 | Cc1c(C)c2c(c(C)c1O)CCC(C)(COc1ccc(CC3SC(=O)NC3=O)cc1)O2 (stereo not drawn) [Troglitazone] | 14.5
45 | C[N+]1(C)[C@@H]2CC[C@H]1C[C@@H](OC(=O)C(O)c1ccccc1)C2 (stereo partly drawn) [homatropine methylbromide] | 16.2
46 | NCCNCCNCCNCCN [Tetraethylenepentamine pentahydrochloride] | 7.57
47 | Cc1cc2c(cc1S(N)(=O)=O)S(=O)(=O)CCC2 [meticrane] | < 0
48 | CCCCCCc1ccc(O)cc1O.Nc1c2ccccc2nc2ccccc12 [acrisorcin] | 20.8
49 | COC(=O)Nc1nc2cc(C(=O)c3ccccc3)ccc2[nH]1 [mebendazole] | 5.6
50 | CCCCCCCCCc1ccc(OCCOCCOCCOCCOCCOCCOCCOCCOCCO)cc1 [nonoxynol-9] | 88.7
51 | NC(=O)c1cc[n+](CC2=C(C(=O)O)N3C(=O)[C@@H](NC(=O)[C@@H](c4ccccc4)S(=O)(=O)[O-])[C@H]3SC2)cc1 [cefsulodin sodium] | 12.9
52 | CC1(C)S[C@@H]2[C@H](NC(=O)[C@H](NC(=O)N3CCNC3=O)c3ccccc3)C(=O)N2[C@H]1C(=O)O [azlocillin sodium] | 13.9
53 | CCOC(=O)[C@H](CCc1ccccc1)N[C@@H](C)C(=O)N1Cc2ccccc2C[C@H]1C(=O)O [quinapril hydrochloride] | < 0
54 | CC(CCc1ccccc1)NCC(O)c1ccc(O)c(C(N)=O)c1 (stereo not drawn) [labetalol hydrochloride] | 1.53
55 | CC1CC(OC(=O)C(O)c2ccccc2)CC(C)(C)C1 (stereo not drawn) [cyclandelate] | 12.4
56 | O=C(O)c1cccnc1Nc1cccc(C(F)(F)F)c1 [niflumic acid] | 0.0993
57 | Cc1oncc1C(=O)Nc1ccc(C(F)(F)F)cc1 [lefunamide] | 1.11
58 | CN(C)/N=N/c1[nH]cnc1C(N)=O [dacarbazine] | 16.6
59 | CC[N+](C)(C)Cc1ccccc1Br [Bretylium tosylate] | 0.476
60 | C[N+](C)(C)CCCCCC[N+](C)(C)C [Hexamethonium dichloride] | < 0
61 | CN1C(C)(C)CCCC1(C)C [pempidine tartrate] | 19.8
62 | Cc1onc(-c2c(Cl)cccc2Cl)c1C(=O)N[C@@H]1C(=O)N2[C@@H]1SC(C)(C)[C@@H]2C(=O)O [dicloxacillin sodium] | < 0
63 | CCN(CC)CCOC(=O)C(Cc1cccc2ccccc12)CC1CCCO1 (stereo not drawn) [nafronyl oxalate] | < 0

— the supplement of paper PMC7830784
